The list shows a part of the results. Hit calls seldom repeat between salt and free forms of one compound.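 Kinases, fused to nanoluciferase, were expressed in K562 cells; luminescence was measured every 4 h from 2 to 18 h as percent of control (DMSO = 100%, positive control = 0%). A time point is decreased if signal falls significantly (2 sigma). Hits were called by the authors by a rule that is not shown; the count of time points alone does not decide it.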
Key:
Assay in all cases: kinase-Nluc reporter destabilization hit call (1 = scored as downregulated) (binary); higher = compound decreases kinase abundance
Conditions in all cases: K562, 2-18 h
[1] = target: ERN1 (UniProt O75460)
[2] = target: FGFR1 (UniProt P11362)
[3] = target: FGFR2 (UniProt P21802)
[4] = target: FGFR3 (UniProt P22607)
[5] = target: FGR (UniProt P09769)
[6] = target: FLT3 (UniProt P36888)
[7] = target: FYN (UniProt P06241)
[8] = target: GSK3A (UniProt P49840)
[9] = target: HER2 (UniProt P04626)
[10] = target: INSRR (UniProt P14616)
[11] = target: IRAK3 (UniProt Q9Y616)
[12] = target: JAK1 (UniProt P23458)
[13] = target: LIMK1 (UniProt P53667)
[14] = target: LIMK2 (UniProt P53671)
[15] = target: LMTK2 (UniProt Q8IWU2)
[16] = target: LYN (UniProt P07948)
[17] = target: MAP2K1 (UniProt Q02750)
[18] = target: MAP2K2 (UniProt P36507)
[19] = target: MAP4K2 (UniProt Q12851)
[20] = target: LCK (UniProt P06239)

Protein sequences, listed by entry. Tags and fused reporters are not part of them. Lines headed by an entry give the natural chain unless they say otherwise; changes in a name come on top.
UniProt P11362, whole entry, looked up: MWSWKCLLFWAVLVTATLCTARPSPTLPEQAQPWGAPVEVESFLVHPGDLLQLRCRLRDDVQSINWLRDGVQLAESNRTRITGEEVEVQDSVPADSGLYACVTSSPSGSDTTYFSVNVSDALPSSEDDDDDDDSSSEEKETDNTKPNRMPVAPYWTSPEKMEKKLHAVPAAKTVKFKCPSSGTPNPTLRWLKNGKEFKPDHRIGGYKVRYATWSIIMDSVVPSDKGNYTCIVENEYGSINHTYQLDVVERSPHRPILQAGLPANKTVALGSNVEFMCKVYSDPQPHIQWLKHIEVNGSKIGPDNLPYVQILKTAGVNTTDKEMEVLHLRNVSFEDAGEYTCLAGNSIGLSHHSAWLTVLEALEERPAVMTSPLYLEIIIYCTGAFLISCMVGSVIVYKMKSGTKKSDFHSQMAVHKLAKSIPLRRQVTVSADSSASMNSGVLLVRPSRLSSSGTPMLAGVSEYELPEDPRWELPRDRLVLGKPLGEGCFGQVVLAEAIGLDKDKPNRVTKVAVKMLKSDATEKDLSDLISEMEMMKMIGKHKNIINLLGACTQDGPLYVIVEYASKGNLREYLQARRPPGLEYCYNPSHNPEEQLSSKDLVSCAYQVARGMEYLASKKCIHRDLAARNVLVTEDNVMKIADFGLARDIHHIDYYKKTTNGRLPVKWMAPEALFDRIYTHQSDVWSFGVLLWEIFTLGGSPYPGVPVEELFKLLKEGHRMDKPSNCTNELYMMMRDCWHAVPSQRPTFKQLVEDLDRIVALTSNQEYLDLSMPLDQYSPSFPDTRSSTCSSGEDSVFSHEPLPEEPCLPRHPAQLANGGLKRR
UniProt P36888, whole entry: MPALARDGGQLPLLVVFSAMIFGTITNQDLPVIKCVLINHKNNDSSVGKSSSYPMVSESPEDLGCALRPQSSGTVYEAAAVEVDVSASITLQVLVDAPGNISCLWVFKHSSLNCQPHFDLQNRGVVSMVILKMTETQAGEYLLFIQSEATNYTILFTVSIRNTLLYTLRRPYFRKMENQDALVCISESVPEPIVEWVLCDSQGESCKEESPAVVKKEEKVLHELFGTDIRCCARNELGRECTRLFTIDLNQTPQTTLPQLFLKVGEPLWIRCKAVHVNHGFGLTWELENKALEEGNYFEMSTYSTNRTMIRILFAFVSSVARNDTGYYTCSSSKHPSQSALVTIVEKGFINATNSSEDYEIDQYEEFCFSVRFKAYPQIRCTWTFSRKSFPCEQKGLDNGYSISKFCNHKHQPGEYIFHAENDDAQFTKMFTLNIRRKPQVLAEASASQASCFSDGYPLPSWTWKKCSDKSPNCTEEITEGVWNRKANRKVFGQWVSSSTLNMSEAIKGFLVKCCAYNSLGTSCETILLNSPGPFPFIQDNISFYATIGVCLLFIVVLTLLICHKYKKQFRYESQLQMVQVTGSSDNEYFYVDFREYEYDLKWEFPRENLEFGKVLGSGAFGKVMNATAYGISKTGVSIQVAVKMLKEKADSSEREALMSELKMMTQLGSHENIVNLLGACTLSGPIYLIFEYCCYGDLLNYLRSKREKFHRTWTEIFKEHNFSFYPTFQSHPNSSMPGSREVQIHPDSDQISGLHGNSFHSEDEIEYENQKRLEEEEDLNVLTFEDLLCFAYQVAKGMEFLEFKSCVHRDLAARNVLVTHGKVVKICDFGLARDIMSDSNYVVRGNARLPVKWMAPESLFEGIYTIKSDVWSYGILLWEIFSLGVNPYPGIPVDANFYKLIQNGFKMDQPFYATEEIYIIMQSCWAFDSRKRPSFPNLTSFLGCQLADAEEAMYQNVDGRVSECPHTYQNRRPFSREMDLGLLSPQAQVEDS
UniProt P06241, whole entry, looked up: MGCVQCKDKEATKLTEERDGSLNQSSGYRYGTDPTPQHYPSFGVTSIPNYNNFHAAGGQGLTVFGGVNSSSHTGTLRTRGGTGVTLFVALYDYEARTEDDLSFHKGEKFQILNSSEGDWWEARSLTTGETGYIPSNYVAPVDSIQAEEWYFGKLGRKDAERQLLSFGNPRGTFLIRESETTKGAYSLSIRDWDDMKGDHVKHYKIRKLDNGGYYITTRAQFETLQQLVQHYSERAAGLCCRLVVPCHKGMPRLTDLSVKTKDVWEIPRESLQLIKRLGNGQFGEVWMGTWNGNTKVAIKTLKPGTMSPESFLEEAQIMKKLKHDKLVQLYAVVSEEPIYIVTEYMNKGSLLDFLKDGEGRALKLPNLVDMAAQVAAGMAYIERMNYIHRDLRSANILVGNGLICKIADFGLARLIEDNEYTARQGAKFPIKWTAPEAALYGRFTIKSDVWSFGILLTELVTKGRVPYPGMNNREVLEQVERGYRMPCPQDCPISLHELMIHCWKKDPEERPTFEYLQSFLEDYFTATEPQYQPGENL
UniProt P49840: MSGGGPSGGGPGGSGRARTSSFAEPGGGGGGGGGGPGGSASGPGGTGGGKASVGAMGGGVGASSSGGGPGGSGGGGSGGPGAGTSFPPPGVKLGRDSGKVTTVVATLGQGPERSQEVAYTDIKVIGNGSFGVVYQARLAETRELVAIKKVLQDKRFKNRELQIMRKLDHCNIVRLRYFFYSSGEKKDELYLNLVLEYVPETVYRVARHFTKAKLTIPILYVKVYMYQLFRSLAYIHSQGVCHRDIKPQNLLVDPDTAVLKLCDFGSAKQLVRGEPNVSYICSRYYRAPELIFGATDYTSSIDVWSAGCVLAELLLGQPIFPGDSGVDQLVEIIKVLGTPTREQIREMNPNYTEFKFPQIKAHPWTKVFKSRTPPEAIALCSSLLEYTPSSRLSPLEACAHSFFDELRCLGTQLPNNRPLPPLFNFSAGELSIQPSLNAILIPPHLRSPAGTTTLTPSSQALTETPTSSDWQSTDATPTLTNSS
UniProt P53667: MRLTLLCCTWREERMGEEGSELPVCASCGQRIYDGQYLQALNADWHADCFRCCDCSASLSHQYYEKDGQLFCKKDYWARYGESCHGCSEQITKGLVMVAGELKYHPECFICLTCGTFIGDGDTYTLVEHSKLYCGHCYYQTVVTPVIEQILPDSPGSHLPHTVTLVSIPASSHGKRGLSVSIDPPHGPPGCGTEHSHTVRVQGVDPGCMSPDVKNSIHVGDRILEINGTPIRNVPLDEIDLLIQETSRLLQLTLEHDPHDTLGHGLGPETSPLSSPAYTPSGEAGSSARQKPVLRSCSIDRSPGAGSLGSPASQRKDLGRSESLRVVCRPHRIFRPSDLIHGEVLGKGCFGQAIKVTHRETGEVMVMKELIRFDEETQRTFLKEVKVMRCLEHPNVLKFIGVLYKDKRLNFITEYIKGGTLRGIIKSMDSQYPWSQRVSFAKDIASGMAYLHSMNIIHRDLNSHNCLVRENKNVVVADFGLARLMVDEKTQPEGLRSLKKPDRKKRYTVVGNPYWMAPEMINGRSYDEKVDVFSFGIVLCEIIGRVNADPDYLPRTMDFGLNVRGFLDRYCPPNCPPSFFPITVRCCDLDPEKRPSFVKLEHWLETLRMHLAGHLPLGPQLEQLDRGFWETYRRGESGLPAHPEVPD
UniProt P53671: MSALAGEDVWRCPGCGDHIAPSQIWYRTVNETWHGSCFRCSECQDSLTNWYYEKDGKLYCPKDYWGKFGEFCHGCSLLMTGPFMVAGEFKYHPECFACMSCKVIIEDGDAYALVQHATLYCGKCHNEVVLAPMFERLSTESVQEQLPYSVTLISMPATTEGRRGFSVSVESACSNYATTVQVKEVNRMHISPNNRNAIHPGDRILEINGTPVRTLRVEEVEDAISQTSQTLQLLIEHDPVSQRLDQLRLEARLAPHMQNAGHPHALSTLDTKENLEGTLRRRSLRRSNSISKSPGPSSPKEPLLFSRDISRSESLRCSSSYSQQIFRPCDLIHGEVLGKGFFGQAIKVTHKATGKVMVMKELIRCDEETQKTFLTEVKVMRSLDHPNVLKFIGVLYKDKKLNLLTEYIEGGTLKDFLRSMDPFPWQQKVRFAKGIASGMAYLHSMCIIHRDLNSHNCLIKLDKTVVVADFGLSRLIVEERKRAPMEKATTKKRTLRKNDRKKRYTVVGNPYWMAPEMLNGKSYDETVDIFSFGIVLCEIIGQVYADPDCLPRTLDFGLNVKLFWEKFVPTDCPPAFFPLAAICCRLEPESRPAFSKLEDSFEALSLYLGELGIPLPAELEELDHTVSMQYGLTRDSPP
UniProt Q8IWU2: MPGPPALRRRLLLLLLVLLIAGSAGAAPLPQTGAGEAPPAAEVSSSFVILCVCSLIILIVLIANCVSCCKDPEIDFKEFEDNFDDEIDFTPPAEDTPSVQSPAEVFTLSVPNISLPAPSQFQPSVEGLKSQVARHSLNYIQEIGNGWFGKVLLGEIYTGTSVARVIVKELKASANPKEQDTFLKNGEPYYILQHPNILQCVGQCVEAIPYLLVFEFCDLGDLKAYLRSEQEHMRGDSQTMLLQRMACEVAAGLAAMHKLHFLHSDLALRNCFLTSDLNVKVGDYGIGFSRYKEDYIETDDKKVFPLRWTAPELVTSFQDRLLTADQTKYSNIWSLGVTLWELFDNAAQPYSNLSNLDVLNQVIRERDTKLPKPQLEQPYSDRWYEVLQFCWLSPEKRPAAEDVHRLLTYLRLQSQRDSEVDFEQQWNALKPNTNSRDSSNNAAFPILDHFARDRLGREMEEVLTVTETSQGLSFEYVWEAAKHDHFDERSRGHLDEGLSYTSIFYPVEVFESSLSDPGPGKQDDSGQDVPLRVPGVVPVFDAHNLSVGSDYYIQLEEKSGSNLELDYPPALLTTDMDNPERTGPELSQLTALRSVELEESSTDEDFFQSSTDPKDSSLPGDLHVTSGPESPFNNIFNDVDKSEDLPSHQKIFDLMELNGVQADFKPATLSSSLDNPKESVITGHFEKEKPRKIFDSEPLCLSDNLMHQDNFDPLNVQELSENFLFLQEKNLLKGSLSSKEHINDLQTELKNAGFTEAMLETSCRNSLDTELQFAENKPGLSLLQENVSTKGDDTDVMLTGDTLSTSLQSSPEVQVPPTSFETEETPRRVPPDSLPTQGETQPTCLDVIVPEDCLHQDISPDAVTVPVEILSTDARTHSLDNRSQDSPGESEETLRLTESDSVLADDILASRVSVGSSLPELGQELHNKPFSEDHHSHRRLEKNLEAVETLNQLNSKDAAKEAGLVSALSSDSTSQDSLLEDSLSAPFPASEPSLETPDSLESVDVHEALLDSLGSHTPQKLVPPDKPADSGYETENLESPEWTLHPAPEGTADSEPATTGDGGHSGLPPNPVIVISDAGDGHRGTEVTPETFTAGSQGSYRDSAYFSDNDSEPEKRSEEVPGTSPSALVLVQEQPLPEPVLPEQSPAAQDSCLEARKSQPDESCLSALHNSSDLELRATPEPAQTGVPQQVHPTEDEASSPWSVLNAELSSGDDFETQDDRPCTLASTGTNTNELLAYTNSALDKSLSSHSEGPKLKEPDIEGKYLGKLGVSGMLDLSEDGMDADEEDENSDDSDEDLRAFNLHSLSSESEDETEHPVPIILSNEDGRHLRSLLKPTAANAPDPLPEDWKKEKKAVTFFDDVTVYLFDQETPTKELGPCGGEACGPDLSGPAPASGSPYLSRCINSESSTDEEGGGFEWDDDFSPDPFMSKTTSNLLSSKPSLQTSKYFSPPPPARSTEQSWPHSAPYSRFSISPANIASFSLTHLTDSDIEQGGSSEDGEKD
UniProt P07948: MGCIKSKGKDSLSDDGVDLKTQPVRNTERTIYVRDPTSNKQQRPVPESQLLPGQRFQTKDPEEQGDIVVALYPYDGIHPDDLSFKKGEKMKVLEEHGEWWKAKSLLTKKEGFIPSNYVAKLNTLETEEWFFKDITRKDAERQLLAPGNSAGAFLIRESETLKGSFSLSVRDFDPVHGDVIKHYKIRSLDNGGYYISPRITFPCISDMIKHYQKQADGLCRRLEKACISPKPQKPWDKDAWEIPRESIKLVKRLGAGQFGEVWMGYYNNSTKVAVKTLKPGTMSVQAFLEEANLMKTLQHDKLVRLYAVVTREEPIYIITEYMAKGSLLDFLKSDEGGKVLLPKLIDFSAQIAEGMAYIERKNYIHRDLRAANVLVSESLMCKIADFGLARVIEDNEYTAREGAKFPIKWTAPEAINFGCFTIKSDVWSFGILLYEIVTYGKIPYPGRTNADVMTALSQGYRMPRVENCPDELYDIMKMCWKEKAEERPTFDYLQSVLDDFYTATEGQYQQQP

Measured: kinase-Nluc reporter destabilization hit call

COc1cc2ncnc(Nc3ccc(F)c(Cl)c3)c2cc1OCCCN1CCOCC1 [Gefitinib]
active: [9]; 10 µM 1
inactive: [1]; 10 µM 0 | [2]; 10 µM 0 | [3]; 10 µM 0 | [4]; 10 µM 0 | [5]; 10 µM 0 | [6]; 10 µM 0 | [7]; 10 µM 0 | [8]; 10 µM 0 | [10]; 10 µM 0 | [11]; 10 µM 0 | [12]; 10 µM 0 | [13]; 10 µM 0 | [14]; 10 µM 0 | [15]; 10 µM 0 | [16]; 10 µM 0 | [17]; 10 µM 0 | [18]; 10 µM 0 | [19]; 10 µM 0

CCOc1cc2ncc(C#N)c(Nc3ccc(F)c(Cl)c3)c2cc1NC(=O)/C=C/CN(C)C [Pelitinib]
inactive: [1]; 2.5 µM 0 | [2]; 2.5 µM 0 | [3]; 2.5 µM 0 | [4]; 2.5 µM 0 | [5]; 2.5 µM 0 | [6]; 2.5 µM 0 | [7]; 2.5 µM 0 | [8]; 2.5 µM 0 | [10]; 2.5 µM 0 | [11]; 2.5 µM 0 | [12]; 2.5 µM 0 | [13]; 2.5 µM 0 | [14]; 2.5 µM 0 | [15]; 2.5 µM 0 | [16]; 2.5 µM 0 | [17]; 2.5 µM 0 | [18]; 2.5 µM 0 | [19]; 2.5 µM 0
active: [9]; 2.5 µM 1

CCc1cc2c(cc1-c1cnn(CC(=O)N(C)C)c1)C(C)(C)c1[nH]c3cc(C#N)ccc3c1C2=O
active: [13]; 2.5 µM 1
inactive: [1]; 2.5 µM 0 | [2]; 2.5 µM 0 | [4]; 2.5 µM 0 | [5]; 2.5 µM 0 | [6]; 2.5 µM 0 | [7]; 2.5 µM 0 | [8]; 2.5 µM 0 | [9]; 2.5 µM 0 | [10]; 2.5 µM 0 | [11]; 2.5 µM 0 | [12]; 2.5 µM 0 | [20]; 2.5 µM 0 | [14]; 2.5 µM 0 | [15]; 2.5 µM 0 | [16]; 2.5 µM 0 | [17]; 2.5 µM 0 | [18]; 2.5 µM 0 | [19]; 2.5 µM 0

CN1CCN(c2ccc3nc(-c4c(N)c5c(F)cccc5[nH]c4=O)[nH]c3c2)CC1 [Dovitinib (lactate)]
inactive: [1]; 2.5 µM 0 | [5]; 2.5 µM 0 | [7]; 2.5 µM 0 | [8]; 2.5 µM 0 | [9]; 2.5 µM 0 | [10]; 2.5 µM 0 | [11]; 2.5 µM 0 | [12]; 2.5 µM 0 | [13]; 2.5 µM 0 | [14]; 2.5 µM 0 | [15]; 2.5 µM 0 | [17]; 2.5 µM 0 | [18]; 2.5 µM 0 | [19]; 2.5 µM 0

Cc1cc2c(F)c(Oc3ncnn4cc(OC[C@@H](C)O)c(C)c34)ccc2[nH]1 [Brivanib]
inactive: [1]; 10 µM 0 | [3]; 10 µM 0 | [4]; 10 µM 0 | [5]; 10 µM 0 | [6]; 10 µM 0 | [7]; 10 µM 0 | [8]; 10 µM 0 | [9]; 10 µM 0 | [10]; 10 µM 0 | [11]; 10 µM 0 | [12]; 10 µM 0 | [13]; 10 µM 0 | [14]; 10 µM 0 | [15]; 10 µM 0 | [16]; 10 µM 0 | [17]; 10 µM 0 | [18]; 10 µM 0 | [19]; 10 µM 0

Cc1cc2ncnn2cc1Nc1ncc2c(n1)n(C1CCOCC1)c(=O)n2C
inactive: [1]; 10 µM 0 | [5]; 10 µM 0 | [6]; 10 µM 0 | [8]; 10 µM 0 | [9]; 10 µM 0 | [10]; 10 µM 0 | [11]; 10 µM 0 | [12]; 10 µM 0 | [20]; 10 µM 0 | [15]; 10 µM 0 | [18]; 10 µM 0

COc1cc(N2CCC(N3CCN(C)CC3)CC2)ccc1Nc1ncc(Cl)c(Nc2ccccc2S(=O)(=O)C(C)C)n1
inactive: [1]; 2.5 µM 0 | [2]; 2.5 µM 0 | [3]; 2.5 µM 0 | [4]; 2.5 µM 0 | [5]; 2.5 µM 0 | [7]; 2.5 µM 0 | [8]; 2.5 µM 0 | [9]; 2.5 µM 0 | [10]; 2.5 µM 0 | [11]; 2.5 µM 0 | [12]; 2.5 µM 0 | [20]; 2.5 µM 0 | [13]; 2.5 µM 0 | [14]; 2.5 µM 0 | [15]; 2.5 µM 0 | [16]; 2.5 µM 0 | [17]; 2.5 µM 0 | [18]; 2.5 µM 0 | [19]; 2.5 µM 0

CC1(C)C(=O)N([C@H]2CCc3c(O)cccc32)c2nc(Nc3cccc(CN4CCCC4)c3)ncc21
inactive: [1]; 2.5 µM 0 | [2]; 2.5 µM 0 | [3]; 2.5 µM 0 | [4]; 2.5 µM 0 | [5]; 2.5 µM 0 | [6]; 2.5 µM 0 | [7]; 2.5 µM 0 | [8]; 2.5 µM 0 | [9]; 2.5 µM 0 | [10]; 2.5 µM 0 | [11]; 2.5 µM 0 | [12]; 2.5 µM 0 | [20]; 2.5 µM 0 | [13]; 2.5 µM 0 | [14]; 2.5 µM 0 | [15]; 2.5 µM 0 | [17]; 2.5 µM 0 | [18]; 2.5 µM 0 | [19]; 2.5 µM 0

COc1cc2/c(=N/c3ccc(Br)cc3F)nc[nH]c2cc1OCC1CCN(C)CC1 [Vandetanib]
inactive: [1]; 2.5 µM 0 | [3]; 2.5 µM 0 | [5]; 2.5 µM 0 | [6]; 2.5 µM 0 | [7]; 2.5 µM 0 | [8]; 2.5 µM 0 | [9]; 2.5 µM 0 | [10]; 2.5 µM 0 | [11]; 2.5 µM 0 | [12]; 2.5 µM 0 | [13]; 2.5 µM 0 | [14]; 2.5 µM 0 | [15]; 2.5 µM 0 | [16]; 2.5 µM 0 | [17]; 2.5 µM 0

CCN(CC)CCNC(=O)c1c(C)[nH]c(/C=C2\C(=O)Nc3ccc(F)cc32)c1C [Sunitinib]
inactive: [1]; 2.5 µM 0 | [2]; 2.5 µM 0 | [3]; 2.5 µM 0 | [4]; 2.5 µM 0 | [5]; 2.5 µM 0 | [6]; 2.5 µM 0 | [7]; 2.5 µM 0 | [8]; 2.5 µM 0 | [9]; 2.5 µM 0 | [10]; 2.5 µM 0 | [11]; 2.5 µM 0 | [12]; 2.5 µM 0 | [13]; 2.5 µM 0 | [14]; 2.5 µM 0 | [15]; 2.5 µM 0 | [16]; 2.5 µM 0 | [17]; 2.5 µM 0 | [18]; 2.5 µM 0 | [19]; 2.5 µM 0

— the supplement of paper PMC12823440, “Inhibitors supercharge kinase turnover through native proteolytic circuits” (Nature, 2025)
